The campaign covered roughly 52,000 sequences. About 210 (0.4%) were called active.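 How the source made its calls: active means gene whose silencing raises cell survival under the drug, median off-target-corrected z-score across its silencing RNAs 2 or more; inactive means the rest.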 The list shows a part of the results.

This assay in a line: Resistance to Poly (ADP-Ribose) Polymerase inhibitor: Gene Identification via Genome-wide siRNA Screen. Particulars: mouse BRCA2 R2336H ES cells, olaparib, CellTiter-Glo viability; active compounds read high. In short, it runs like this: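 Mouse BRCA2 R2336H ES cells were reverse-transfected with siRNA (20 nM final), treated at 48 h with 500 nM olaparib, and read by CellTiter-Glo after 72 h. Scores: MAD-based z per siRNA, median per gene, seed off-target correction.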
For GGUCAUUAUUGGAUGCAUCTT against Mga, the z-score was inactive: -2.47.
On to GGCUUCUGGACCUCAAACATT against Zfp92, for which the z-score was inactive: 1.33.
Under GGCUCAGAGAACUUCUACATT against Itgb4bp stands inactive: -1.97; under GGAAGUUCCGUCGAUUUGATT against Cyp8b1, inactive: -1.83; under GCACAAUGUCCCAUCGUGGTT against Rps5, inactive: -2.33.
On to GGCCAAGUUCCAUAUCACCTT against Eefsec, for which the z-score is inactive: 1.24.
As for GGAUGUCUCGGCAUAGUUCTT against Edg2, the z-score is inactive: -0.0558.
For the sequence CCUUCUCUCAUAACUCAUCTT against Rbak, the z-score was inactive: -0.0622.
“CCAAUGCUUGUGAUAAGCCTT against 2310015J09Rik”: the z-score is inactive: 0.413.
Regarding GGUUAAAAUGCCAUAACAATT against Ksr, the z-score was inactive: -0.718.
For the sequence GGAUUGAGAAUAUCUGAGUTT against H2-T3, the z-score is inactive: -0.572.
Regarding GGAGUUCGAGAAAGACAAATT against Eif4g3, the z-score was inactive: -1.35.
For the sequence GCUUCUGCUAGAUGAAAAUTT against Rgs7, the z-score is inactive: -0.846.
GGUUUUUCUCUCUCUCAUUTT against Epas1: the z-score was inactive: 0.967.
Take CGGAAUGGUUCUUUCACAGTT against Adamts13: the z-score was inactive: -0.643.
As to GCAAAAGUUCCAAAAAUCCTT against Cryba1, the z-score is inactive: -0.508.
As for “CCCAGAGCAUUCCUAUUACTT against 2310020F24Rik”, the z-score was inactive: -1.42.
As to GGAAUUCCUCUUCAACAUGTT against Hoxd9, the z-score is inactive: 0.144.
Regarding GGAUGUUUUAAUCUAAAGCTT against Ccdc3, the z-score is inactive: 0.652.
Regarding GGCUUUAAUGUGUCAGUACTT against Slc25a5, the z-score was inactive: 0.39.
As for GGCCAAUGACAGAACCUAUTT against Atp8b3, the figure is inactive: 0.482; as for CGUAUCUUAUAUCAGGAAATT against Trem1, inactive: 0.666; as for GCGGAGCAGAAUCUUCAUGTT against Olfr614, inactive: -0.039.
As for GGUUGUUGUUUCGUAACAUTT against Cugbp2, the z-score is inactive: 0.196.
Under GGUGAGGAGGAAAUCCUGCTT against Rdh10 stands inactive: 0.0216; under GGCGAGAAGGAAAUGUACATT against Arpc3, inactive: -1.68.
Take GCAACUGGCUGAACUCUCATT against AI987692: the z-score is inactive: 1.32.
On to CCUCCAGUGGUAACAUUAGTT against Olfr301, for which the z-score was inactive: -1.79.
GGCUUAGUGCCUCUAAAAGTT against Aqp6: the z-score was inactive: 2.29.
Turning to GGCUCAAAGGCUACAGCAATT against Ctsw, the z-score was inactive: 1.49.
As to GCAAGGGUUUGGUAGUAGGTT against Nup188, the z-score was inactive: 0.212.
As for “GGAGUAUCUUAGGAGUGAATT against A130042E20Rik”, the z-score was inactive: 1.18.
Take GGCUGACUCGCUUUCACCATT against Efna2: the z-score was inactive: 1.66.
With “CCAACACAUACCAACAGGUTT against 3100004P22Rik”, the z-score was inactive: -3.04.
On to GGUCUUCAUCUGUCCAACUTT against Tmlhe, for which the z-score is inactive: 0.0829.
Regarding GGACCUGUGGUUGUUGUUCTT against Tll2, the z-score was inactive: 0.439.
As for “GGGAUUAAACUGCUCUGUGTT against 1700019N19Rik”, the figure is inactive: -0.891; as for GGGUUGAUAGAAGUUUUUATT against Cpeb1, inactive: -0.0714; as for GCCGUCCUUACACCUUUAUTT against Olfr599, inactive: -1.86.
On to GCAGAAAAGGUCUACGUGCTT against Azgp1, for which the z-score is inactive: 1.47.
For the sequence GCUAAUUAAGAAGAGAGCATT against Gclc, the z-score was inactive: -0.0138.
With “GGAAUACGAAAAGCAGGACTT against 1110004B13Rik”, the z-score was inactive: 1.72.
As for GGUUCCAGAUGUGAUCAGUTT against Tbc1d4, the figure is inactive: -0.302; as for GGGACUCGGAUAUUCGUGUTT against Adcy7, inactive: 0.717; as for “GCUAUUGCUCGCAUCAAUGTT against 1700011K15Rik”, inactive: -0.202.
Take GGAGGAUGCAAUUUUUAACTT against Sult1e1: the z-score was inactive: 0.845.
“GUGUGGAAGGAAGAGGUUUTT against D730049H07Rik”: the z-score is inactive: -0.824.
With CCGAAACCAGCGUAUCCUGTT against Cpn1, the z-score was inactive: -1.03.
Turning to GGAGAAGAAAGGUUACAUCTT against Calml4, the z-score is inactive: 0.15.
Turning to GCAGAAAUUAAGGCCUUAATT against Bicd1, the z-score was inactive: -2.84.
Turning to GGAUCAACCACAUCAGCUCTT against Hrh2, the z-score was inactive: 0.613.
In the case of GGAGGGUAUUAUUGACAUATT against Gnat1, the z-score was inactive: -0.371.
Consider GCCAAUGAAUACUUGCCCATT against Farp2, for which the z-score was inactive: 0.166.
As for “CCUUGACAACCAACAGAUUTT against 6230417E10Rik”, the z-score was inactive: -1.56.
“GGUAGUCACUUUCAGAGGATT against A230103N10Rik”: the z-score is inactive: 1.78.
On to GGAGCUGGACGACUACUAUTT against Ing1, for which the z-score was inactive: -0.913.
Take CCCACUGAUGAUUACGUUCTT against Irf5: the z-score is inactive: 0.0428.
On to GGACAUGUAUAAGAAGAUGTT against Itpka, for which the z-score is inactive: -0.397.
Under GCUUAGACUCACCAAAGGCTT against Gpr26 stands inactive: 1.11; under GGCUGGACUUUCAGCUGAUTT against Sema6d, inactive: -1.75.
Turning to GGACAAGAAGCAUCUUUCATT against Smpdl3a, the z-score is inactive: -1.94.
For CCCAGCUCUGUUUAAUGAUTT against Klf8, the z-score is inactive: 1.96.
As to CGAUGAGAGUCCACUCCCATT against BC038311, the z-score is inactive: 0.913.
On to CGAGCUCAGGCCUAUUAAATT against MGC92959, for which the z-score was inactive: 1.23.
Under GGGUAAAAGUAGCUGCCCUTT against Trp53inp2 stands inactive: 0.295; under GGUGAUCUUAGUGGAGGGCTT against Ppox, inactive: 0.0198; under GGCUCCAGAAGGAACUUUCTT against Socs2, inactive: 0.0215.
As for GGCAUGGACAAAGAGAAGGTT against Nol6, the figure is inactive: -1.45.
On to GCAAAGUUAUUUCGCUUGGTT against Mgst2, for which the z-score was inactive: -1.1.
For CCAAAUACGACUUACGAAATT against Ncam2, the z-score is inactive: 0.897.
In the case of GCUAUAGUUCUCUUUAGUCTT against Nr2c2, the z-score was inactive: 1.84.
Consider GGCUAAAAAAGUCUCAGCCTT against Pbx2, for which the z-score was inactive: 1.02.
In the case of GGACAAGUUGUUGGACUACTT against Smarca3, the z-score is active: 1.04.
GGAGGAUAUUGGAACUGCCTT against BC004853: the z-score was inactive: 1.34.
For “GCGCUUCCAAUAACAAAAATT against 1700123L14Rik”, the z-score was inactive: 0.85.
Under GGCCUAAAGGCUUUGAUGATT against Nars stands inactive: -0.365; under GGACAGACCACACUUCAUGTT against Foxp3, inactive: -0.757.
GGUGAUCGUGGUGUGGAACTT against Extl2: the z-score was inactive: 0.328.
As for “GGACGAGAGCACCUGAAAUTT against 4921525D22Rik”, the z-score was inactive: -0.976.
Take GCACUUCGAUGAGUUGUGCTT against Def6: the z-score is inactive: 1.38.
As for GGACUGAAGUCCUUGACACTT against Lgi3, the figure is inactive: 0.511; as for CCACGUGUCUUAGAAUUAATT against Gas1, inactive: 1.56.
As for “GGAGAGCAUCCUGAAGACGTT against C530009C10Rik”, the figure is inactive: 0.344; as for CGUGUCCUGACCUUUCAACTT against Il22ra1, inactive: -0.34; as for GGUUCAAGGCAUUUUCUACTT against Olfr715, inactive: -0.157.
As for “GGACAAUUACAACACUCAATT against D930036B08Rik”, the figure is inactive: -1.31; as for GGAAUUGAGGUGAUGGAUATT against Sfxn4, inactive: -0.921.
GGAACUACCUUGAAGAGGATT against ORF18: the z-score is inactive: -0.63.
Under “CCAGGUUCUAUCUACCUACTT against 9830123M21Rik” stands inactive: -0.16; under CCGUUGACAGAACAGUCCUTT against Vegfa, inactive: -1.65; under CCUCACAGGCCUACGACAATT against Csrp2, inactive: 0.544.
Regarding GCAAUAGACAUUCAUCAGATT against Serpinb9c, the z-score was inactive: -0.367.
With “GGAUUUGACUAACAUAGGGTT against 6720460F02Rik”, the z-score is inactive: 0.0823.
With “GGGUUAAUUCCAGAAACUATT against D930020E02Rik”, the z-score was inactive: -1.57.
For CCAUCUCUAGAGCAAGACUTT against Cs, the z-score is inactive: -0.115.
Under GGAGAAAGCUGCUCAUGAATT against Caml stands inactive: 2.51; under GGUUGAUCCAAAAGAUUACTT against Rp2h, inactive: 0.343; under GCUACAGGAUUACAUGGUCTT against BC020535, inactive: -0.461.
With CCACAAAUGAGCGCAGAGUTT against Erg, the z-score was inactive: 0.0757.
Take GGACAGAAUUAAGGAUGUCTT against Fdxr: the z-score was inactive: 0.103.
With “GGUGUUGUAAAAUUCCUCATT against 9030406N13Rik”, the z-score is inactive: -0.0303.
On to GGCAUGAGUUCUACCUUCUTT against Tssc4, for which the z-score is inactive: 0.667.
Take GGCCUUGGAACUUAAACGGTT against Dhdds: the z-score is inactive: 0.715.
In the case of CCCAUUAAUUCGACAACUATT against Ppp1r1c, the z-score is inactive: -1.36.
With “GGAAAGUGUUGUUUAAGAATT against 1500019C06Rik”, the z-score is inactive: 0.777.

The values are drawn from PubChem BioAssay AID1347423 (Functional Genomics Laboratory (NCATS/FGL), 2020).
